Reference: PubChem BioAssay AID504784 (Drosophila RNAi Screening Center, 2011)
The screen tested about 17,000 reagents; below is an unselected part of those with a known target gene and a result. 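Each column is one replicate's B-score; the combined score over replicates was not deposited, so single values may mislead.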 A plus sign joins genes that one reagent is predicted to hit. Not all columns of the deposit are shown.

Aim: 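Fly genes whose silencing alters how much lipid cells keep in droplets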 (primary screen)
Cells: Drosophila Kc167 embryonic cells
Reagents: long dsRNA against Drosophila genes, about 250 ng dsRNA per well
Duration: 4 days
Treatment: cells fed 400 µM oleic acid bound to BSA
Read-out: 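Microscope images give a droplet-to-nucleus area ratio, taken as log and converted to a screen-wide B-score; higher values mean greater lipid storage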
Scale: droplet/nuclear area B-score: higher = more stored lipid (overstorage)

For Yp2 (Yolk protein 2) [DRSC18732], what was measured?
droplet/nuclear area B-score, replicate 1: -0.0109

With Cpr51A (Cuticular protein 51A) [DRSC05969], how do the results read?
droplet/nuclear area B-score, replicate 1: -0.101

What did the screen give for tws (twins) [DRSC12767]?
droplet/nuclear area B-score, replicate 1: -0.716

How did the screen score tws (twins) [DRSC17092]?
droplet/nuclear area B-score, replicate 1: 8.34

With CG17121 [DRSC15176], what was measured?
droplet/nuclear area B-score, replicate 1: -0.159

For CG16713 [DRSC00477], how do the results read?
droplet/nuclear area B-score, replicate 1: -1.06

Which result is listed for Gel (Gelsolin) [DRSC12350]?
droplet/nuclear area B-score, replicate 1: -1.06

With CG14410 [DRSC19596], how do the results read?
droplet/nuclear area B-score, replicate 1: 0.56

With CG18417 [DRSC10319], what does the deposit list?
droplet/nuclear area B-score, replicate 1: -0.696

What is on record for bero (belly roll) [DRSC03211]?
droplet/nuclear area B-score, replicate 1: -0.516

For bol (boule) [DRSC08964], what was measured?
droplet/nuclear area B-score, replicate 1: 1.33

With bol (boule) [DRSC10444], how do the results read?
droplet/nuclear area B-score, replicate 1: -0.117

With bol (boule) [DRSC11329], what was measured?
droplet/nuclear area B-score, replicate 1: 0.377

With nSMase (neutral sphingomyelinase) [DRSC08237], how do the results read?
droplet/nuclear area B-score, replicate 1: 0.181

How did the screen score ebd2 (earthbound 2) [DRSC11682]?
droplet/nuclear area B-score, replicate 1: 0.219

How did the screen score Mlc-c (Myosin light chain cytoplasmic) [DRSC18683]?
droplet/nuclear area B-score, replicate 1: -0.487

What did the screen give for Grx1 (Glutaredoxin 1) [DRSC10727]?
droplet/nuclear area B-score, replicate 1: 2.05

For Wnt10 (Wnt oncogene analog 10) [DRSC02797], how do the results read?
droplet/nuclear area B-score, replicate 1: -0.00942

Which result is listed for CG9592 [DRSC11078]?
droplet/nuclear area B-score, replicate 1: 0

With Or65a (Odorant receptor 65a) [DRSC08808], what does the deposit list?
droplet/nuclear area B-score, replicate 1: 1.33

For CG15127 [DRSC05802], how do the results read?
droplet/nuclear area B-score, replicate 1: 0.765

For CG15127 [DRSC06549], what does the deposit list?
droplet/nuclear area B-score, replicate 1: -1.29

For CG15042 [DRSC19618], what does the deposit list?
droplet/nuclear area B-score, replicate 1: -0.377

With Ugalt (UDP-galactose transporter) [DRSC18467], how do the results read?
droplet/nuclear area B-score, replicate 1: -0.463

For CG7182 [DRSC10780], what does the deposit list?
droplet/nuclear area B-score, replicate 1: -0.785

How did the screen score TfIIA-L (Transcription factor IIA L) [DRSC16882]?
droplet/nuclear area B-score, replicate 1: -0.18

How did the screen score CG6961 + CG18259 [DRSC19799]?
droplet/nuclear area B-score, replicate 1: -0.754

What is on record for CG6961 + CG18259 [DRSC20019]?
droplet/nuclear area B-score, replicate 1: -0.0135

How did the screen score wash (washout) [DRSC06302]?
droplet/nuclear area B-score, replicate 1: -0.179

How did the screen score TwdlL (TweedleL) [DRSC16042]?
droplet/nuclear area B-score, replicate 1: -0.00751

Which result is listed for CG31122 [DRSC14787]?
droplet/nuclear area B-score, replicate 1: -4.67

What is on record for CG31122 [DRSC16286]?
droplet/nuclear area B-score, replicate 1: -0.7

With CG30279 (retired record) [DRSC22417], how do the results read?
droplet/nuclear area B-score, replicate 1: 0.00527

With Ssrp (Structure specific recognition protein) [DRSC04658], what was measured?
droplet/nuclear area B-score, replicate 1: 0.261

For CG1941 [DRSC06802], what was measured?
droplet/nuclear area B-score, replicate 1: 0.429

How did the screen score Ald2 (Aldolase 2) [DRSC15799]?
droplet/nuclear area B-score, replicate 1: -0.843

Which result is listed for CG15333 [DRSC18016]?
droplet/nuclear area B-score, replicate 1: 0.15

How did the screen score CG15333 [DRSC18153]?
droplet/nuclear area B-score, replicate 1: -0.126

With mRpL55 (mitochondrial ribosomal protein L55) [DRSC14764], what was measured?
droplet/nuclear area B-score, replicate 1: 2.6

With Egm (Enigma) [DRSC07319], how do the results read?
droplet/nuclear area B-score, replicate 1: -0.89

For Egm (Enigma) [DRSC22860], what was measured?
droplet/nuclear area B-score, replicate 1: 3.73

Copied from the list.
Result of Ssrp (Structure specific recognition protein) [DRSC04658] under “droplet/nuclear area B-score, replicate 1”: 0.261
Egm (Enigma) [DRSC22860], droplet/nuclear area B-score, replicate 1 → 3.73
Wnt10 (Wnt oncogene analog 10) [DRSC02797], droplet/nuclear area B-score, replicate 1: -0.00942
For “droplet/nuclear area B-score, replicate 1”, CG6961 + CG18259 [DRSC19799] is entered as -0.754
For “droplet/nuclear area B-score, replicate 1”, CG17121 [DRSC15176] is entered as -0.159
bol (boule) [DRSC08964], droplet/nuclear area B-score, replicate 1 = 1.33
